The values are deposited in ChEMBL (CHEMBL3988442, “University of Dundee, Small-Polar-MMV Screening Library” (2021)).

A: 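Whole-cell growth test on Mycobacterium tuberculosis, read after 3 days in glucose-containing 7H9 medium; the read-out is not stated. Compounds at 500 µM. Direction is inferred from retests: higher values go with more growth inhibition. Size under these conditions: about 18,000 compounds, about 1,400 of them at 50% or above in at least one test.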
B: 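Whole-cell growth test on Mycobacterium tuberculosis, read after 4 days in a medium based on cholesterol and the lipid DPPC; the read-out is not stated. Tested at 500 µM. Direction is inferred from retests: higher values go with more growth inhibition. Of about 18,000 compounds tested this way, about 900 (5%) reached 50% or more in at least one test.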

Each number is a percent effect as filed. The record does not define 0% and 100%; most values in the screen are far below 50% and negative numbers occur (in some assays of this library far below -100). Compounds were drawn at random from those tested, without regard to their results.

Result for CC(C)Cn1c(=O)[nH]c(=O)c2c1nc1n2CCC1 was A: -8.96%; B: -6.945%.
Result for CN(CCC(N)=O)Cc1ccc(Cl)s1 was A: 34.66%; B: 38.99%.
Result for Cc1[nH]cnc1CN1CCN(S(C)(=O)=O)CC1 was A: 2.038%; B: 5.437%.
Result for CN(C(=O)c1cccs1)C1CCS(=O)(=O)C1 (stereo not shown) was A: 11.5%; B: 11.34%.
Result for CNC(C(N)=O)c1cccc(Br)c1 (stereo not shown) was A: 5.651%; B: 0.2529%.
Result for CN1CC(C(=O)N2CCc3sccc3C2)CC1=O (stereo not shown) was A: 18.62%; B: 15.96%.
Result for CC(=O)N1CCN(C(C)CC(C)C)CC1 (stereo not shown) was A: 14.83%; B: 17.42%.
Result for CC(Cn1cccn1)NC(=O)NCC(F)(F)F (stereo not shown) was A: -2.311%; B: -12.25%.
Result for Cc1ccc(-n2cc(C)cn2)c(NC(=O)CN(C)C)c1 was A: -5.278%; B: -5.406%.
Result for O=S(=O)(C1CC1)N1CCN(CCO)CC1 was A: -4.249%; B: -9.961%.
Result for CC(Sc1n[nH]c(-c2ccccn2)n1)C(=O)N(C)C (stereo not shown) was A: 27.55%; B: 2.576%.
Result for N[C@@H]1CC[C@@H]1NS(=O)(=O)Cc1ccccc1 was A: 28.2%; B: -0.2874%.
Result for CN(CC(C)(C)O)c1cc(N(C)CC(C)(C)O)ncn1 was A: 10.07%; B: 10.53%.
Result for Cc1cc(Cl)ccc1NC(=O)N[C@@H]1C[C@@H](CO)N(C)C1 was A: 28.91%; B: 11.22%.
Result for CC(C)Cn1ccnc(Cl)c1=O was A: 6.703%; B: 5.586%.
Result for Cc1cnn(CCNC(=O)CCCN2CCCCC2)c1 was A: 5.924%; B: 14.05%.
Result for CC(N)CC1CCOCC1 (stereo not shown) was A: -1.329%; B: 0.1035%.
Result for Cc1nn(CCO)c(NCc2ccc(F)cc2)c1C was A: 33.81%; B: 33.12%.
Result for CC(C)COc1ncc(C(=O)Nc2nnc[nH]2)cc1Cl was A: -12.45%; B: -0.3315%.
Result for O=C(NCC1CCNCC1)OCc1ccccc1 was A: 21.96%; B: 13%.
Result for COc1cc(CCNC(=O)C2CCCN2)ccc1F (stereo not shown) was A: -8.288%; B: -15.48%.
Result for Nc1cnn(Cc2nnc3n2CCCCC3)c1 was A: 3.072%; B: 5.167%.
Result for CC(C)(CSc1cc(C#N)ccn1)CS(C)(=O)=O was A: 32.8%; B: 31.36%.
Result for NC(=O)[C@@H]1Cc2ccccc2CN1CCn1cccn1 was A: 16.74%; B: 5.918%.
Result for CC(C)c1nnc(CN2CC[C@](C)(O)[C@H](C)C2)o1 was A: 6.614%; B: 6.151%.
Result for CSC1(CN)CCOCC1 was A: 5.619%; B: 8.795%.
Result for CCN(CC(=O)NCc1ccc(Cl)s1)S(C)(=O)=O was A: 24.86%; B: 21.91%.
Result for CCC(=O)N1CCN(C(=O)CC2CCCCC2)CC1 was A: 38.4%; B: 29.3%.
Result for CCn1ccnc1C(C)=O was A: -3.631%; B: 0.1795%.
Result for Cc1ccc(F)cc1C(=O)N1CCNCC1 was A: -2.474%; B: -4.062%.
Result for CCc1cc(C(=O)NCC(=O)N2CCCCC2)[nH]n1 was A: 21.12%; B: 4.842%.
Result for NS(=O)(=O)c1ncccn1 was A: 2.151%; B: 7.952%.
Result for O=C1C2CSCC1CN(Cc1ccccc1)C2 was A: 1.775%; B: -8.452%.
Result for COCCn1nnc(-c2cccc(OC)c2)n1 was A: 86.05%; B: 86.14%.
Result for CCOc1cc(Cl)c(CNCCO)cc1OC was A: 13.59%; B: 15.35%.
Result for CN(C)c1ccc(CNC(=O)CSc2nncs2)cc1 was A: 16.43%; B: 10.88%.
Result for CC(Cn1ccnc1)NC(=O)Nc1nccs1 (stereo not shown) was A: -1.923%; B: -9.895%.
Result for CCCNC(=O)C1CCN(C(=O)c2cc(Cl)c[nH]2)CC1 was A: 23.78%; B: 25.73%.
Result for Cn1nnnc1SCC(=O)Nc1ccc2c(c1)OCO2 was A: -4.049%; B: -12.64%.
Result for CC(CN)(CO)CO was A: -5.271%; B: 28.92%.
Result for CC(=O)NC1CN(C(=O)NCc2ccc(Br)c(F)c2)C1 was A: 3.62%; B: -3.231%.
Result for COc1ccc(CCC(=O)N2CCCNCC2)cc1 was A: 15.9%; B: 4.786%.
Result for Cc1ccc(CNC(=O)C2(C)CCCCC(=O)N2)o1 (stereo not shown) was A: 10.96%; B: -10.84%.
Result for Cc1cc(C)c(CNC(=O)CCc2nccs2)c(=O)[nH]1 was A: -14.17%; B: -13.68%.
Result for COc1cccc2c1CCC2N (stereo not shown) was A: 57.51%; B: 37.17%.
Result for c1ccc(OCCCNCc2ccncc2)nc1 was A: 18.36%; B: 23.19%.
Result for CCc1nnsc1C(=O)N1CCc2sccc2C1 was A: 53.36%; B: 37.34%.

Once more, the final 4:

| SMILES | A | B |
|---|---|---|
| `Cc1cc(C)c(CNC(=O)CCc2nccs2)c(=O)[nH]1` | -14.17 | -13.68 |
| `COc1cccc2c1CCC2N` (stereo not shown) | 57.51 | 37.17 |
| `c1ccc(OCCCNCc2ccncc2)nc1` | 18.36 | 23.19 |
| `CCc1nnsc1C(=O)N1CCc2sccc2C1` | 53.36 | 37.34 |